The other results are listed elsewhere or left out. Many values rest on one well or one pass, so single values are uncertain.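 Imaging used 1,536-well plates; nuclei positive for cleaved PARP by antibody were divided by total DNA-stained nuclei to yield the apoptosis fraction. Doses for screening kept most cells viable, and cell lines differ markedly in resting and induced cleaved-PARP levels.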
System: 501Mel
Experiment: cleaved PARP positive nuclei fraction relative to DMSO control; melanoma cells; higher = more apoptosis
Conditions: library dose: low library concentration; 72 h

SMILES	cleaved PARP positive nuclei fraction [%]
O=C(CCCCCCC(=O)Nc1ccccc1)NO [vorinostat] + CC1(C)NC(=O)N(c2ccc([N+](=O)[O-])c(C(F)(F)F)c2)C1=O [nilutamide] (first compound 0.08 µM, partner dose 1 µM)	172
Cc1ccc(NC(=O)c2cccc(N(C)C)c2)cc1NC(=O)c1ccc(O)cc1 + COc1cc2c(Oc3ccc4[nH]c(C)cc4c3F)ncnc2cc1OCCCN1CCCC1 [cediranib] (first compound 2 µM, partner dose 0.4 µM)	194
OCc1c[nH]c2ccccc12 [Indole-3-carbinol] + CN(NC(=O)CC(=O)NN(C)C(=S)c1ccccc1)C(=S)c1ccccc1 [STA4783] (first compound 0.8 µM, partner dose 0.006 µM)	154
Cn1c(Nc2ccc(C(F)(F)F)cc2)nc2cc(Oc3ccnc(-c4ncc(C(F)(F)F)[nH]4)c3)ccc21 + NCC(=O)Nc1ccc(-n2nc(C(F)(F)F)cc2-c2ccc3c(ccc4ccccc43)c2)cc1 [OSU03012] (first compound 0.08 µM, partner dose 1 µM)	227
CO[C@@H]1[C@H](N(C)C(=O)c2ccccc2)C[C@H]2O[C@]1(C)n1c3ccccc3c3c4c(c5c6ccccc6n2c5c31)C(=O)NC4 [Midostaurin] + COc1cc2c(Oc3ccc4[nH]c(C)cc4c3F)ncnc2cc1OCCCN1CCCC1 [cediranib] (first compound 0.08 µM, partner dose 0.4 µM)	70.1
C=CCNC1=C2C[C@@H](C)C[C@H](OC)[C@H](O)[C@@H](C)/C=C(\C)[C@H](OC(N)=O)[C@@H](OC)/C=C\C=C(/C)C(=O)NC(=CC1=O)C2=O [Tanespimycin] + O=C(O)c1ccc(-c2c[nH]c3ncc(-c4ccccc4)cc23)cc1C1CCCC1 [GSK650394] (first compound 0.002 µM, partner dose 0.16 µM)	80.6
